In paper PMC5526994 (Nature Communications, 2017):
Construct, isoform or probe ends are uncertain for at least one entry. For some of these results: Weaker means in comparison with the reference protein, sequence or condition of that experiment. For some of these results: At least one verdict rests on a figure or table, not on a statement of the authors.

Columns and labels:
Test in all cases: EMSA
SNAPcΔ = conditions: SNAPcΔ-DNA complex that recruits Bdp1; EMSA: 500 mM ammonium acetate, 50 mM HEPES pH 7.9, 10% glycerol, 1 mM TCEP, 21 °C 20 min, diluted twofold (100 mM ammonium acetate, 40% glycerol) before loading; recombinant protein
SNAPcΔ + Bdp1-ΔN = conditions: reduced Bdp1 binding to SNAPc-DNA; EMSA: 500 mM ammonium acetate, 50 mM HEPES pH 7.9, 10% glycerol, 1 mM TCEP, 21 °C 20 min, diluted twofold (100 mM ammonium acetate, 40% glycerol) before loading; recombinant protein
SNAPcΔ + Bdp1-ΔC = conditions: appreciable Bdp1 binding to SNAPc-DNA; EMSA: 500 mM ammonium acetate, 50 mM HEPES pH 7.9, 10% glycerol, 1 mM TCEP, 21 °C 20 min, diluted twofold (100 mM ammonium acetate, 40% glycerol) before loading; recombinant protein
[1] = system: TBP (core) + Brf2 (62-419) + Bdp1 R334E; conditions: reduced Bdp1 recruitment to Brf2-TBP-DNA; EMSA: 500 mM ammonium acetate, 50 mM HEPES pH 7.9, 10% glycerol, 1 mM TCEP, 21 °C 20 min, diluted twofold (100 mM ammonium acetate, 40% glycerol) before loading; recombinant protein; label: 5' Cy5 on strand 1
[2] = system: TBP (core) + Brf2 (62-419) + Bdp1-ΔC; conditions: EMSA: 500 mM ammonium acetate, 50 mM HEPES pH 7.9, 10% glycerol, 1 mM TCEP, 21 °C 20 min, diluted twofold (100 mM ammonium acetate, 40% glycerol) before …; recombinant protein; label: 5' Cy5 on strand 1
[3] = system: TBP (core) + Brf2 (62-419) + Bdp1-WT; conditions: EMSA: 500 mM ammonium acetate, 50 mM HEPES pH 7.9, 10% glycerol, 1 mM TCEP, 21 °C 20 min, diluted twofold (100 mM ammonium acetate, 40% glycerol) before …; recombinant protein; label: 5' Cy5 on strand 1
[4] = system: TBP (core) + Brf2 (62-419) + Bdp1-ΔN; conditions: EMSA: 500 mM ammonium acetate, 50 mM HEPES pH 7.9, 10% glycerol, 1 mM TCEP, 21 °C 20 min, diluted twofold (100 mM ammonium acetate, 40% glycerol) before …; recombinant protein; label: 5' Cy5 on strand 1

Sequence	binding result (SNAPcΔ)	binding result (SNAPcΔ + Bdp1-ΔN)	binding result (SNAPcΔ + Bdp1-ΔC)	binding result [1]	binding result [2]	binding result [3]	binding result [4]
CCATAAGTTATCCTAACCAAAAGATGATTTGA (double strand) [U6_2 PSE probe]	binds	binds more weakly	binds				
ATTTGATTGAAGGGCTTAAAATAGGTGTGACAGTAACC (double strand) [U6_2 TATA EMSA probe]				binds more weakly	binds	binds	binds
